Reference: the supplement of paper PMC10849652
The other results are listed elsewhere or left out.

Protein sequences, listed by entry. Tags and fused reporters are not part of them. Lines headed by an entry give the natural chain unless they say otherwise; changes in a name come on top.
UniProt Q9NZV5, whole entry, looked up: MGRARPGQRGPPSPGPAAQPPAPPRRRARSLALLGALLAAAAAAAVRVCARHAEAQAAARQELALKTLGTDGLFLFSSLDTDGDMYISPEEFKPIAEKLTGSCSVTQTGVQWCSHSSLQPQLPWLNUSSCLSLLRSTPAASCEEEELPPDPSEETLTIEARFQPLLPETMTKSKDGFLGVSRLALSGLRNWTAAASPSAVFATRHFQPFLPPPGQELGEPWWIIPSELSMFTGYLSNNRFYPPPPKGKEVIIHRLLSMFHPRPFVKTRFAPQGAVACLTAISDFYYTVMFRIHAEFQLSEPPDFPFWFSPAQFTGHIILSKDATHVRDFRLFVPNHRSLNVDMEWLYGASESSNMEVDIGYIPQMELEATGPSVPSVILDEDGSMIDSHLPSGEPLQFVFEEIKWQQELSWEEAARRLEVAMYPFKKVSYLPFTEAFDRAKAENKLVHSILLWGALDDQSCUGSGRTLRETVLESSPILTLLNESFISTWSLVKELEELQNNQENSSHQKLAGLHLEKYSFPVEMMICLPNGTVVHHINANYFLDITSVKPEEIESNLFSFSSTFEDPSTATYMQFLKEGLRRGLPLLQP
UniProt Q9HAT2: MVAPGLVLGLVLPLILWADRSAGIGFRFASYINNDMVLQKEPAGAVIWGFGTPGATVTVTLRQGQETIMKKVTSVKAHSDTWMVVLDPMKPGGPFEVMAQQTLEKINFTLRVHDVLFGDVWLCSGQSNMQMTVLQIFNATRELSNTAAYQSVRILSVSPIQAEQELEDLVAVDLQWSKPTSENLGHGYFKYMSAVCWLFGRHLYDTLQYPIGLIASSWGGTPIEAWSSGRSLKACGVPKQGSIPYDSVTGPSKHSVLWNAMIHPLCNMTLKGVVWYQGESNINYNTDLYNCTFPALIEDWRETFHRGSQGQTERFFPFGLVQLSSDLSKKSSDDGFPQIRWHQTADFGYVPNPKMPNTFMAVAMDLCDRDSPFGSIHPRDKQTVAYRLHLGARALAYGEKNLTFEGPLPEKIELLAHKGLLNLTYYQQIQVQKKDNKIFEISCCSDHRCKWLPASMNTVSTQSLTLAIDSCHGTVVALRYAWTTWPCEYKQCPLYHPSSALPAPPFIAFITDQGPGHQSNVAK
UniProt Q9BWJ5: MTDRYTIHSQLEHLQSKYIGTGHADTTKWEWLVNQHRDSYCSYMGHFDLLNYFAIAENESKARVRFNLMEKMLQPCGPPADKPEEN
UniProt P63208, whole entry, looked up: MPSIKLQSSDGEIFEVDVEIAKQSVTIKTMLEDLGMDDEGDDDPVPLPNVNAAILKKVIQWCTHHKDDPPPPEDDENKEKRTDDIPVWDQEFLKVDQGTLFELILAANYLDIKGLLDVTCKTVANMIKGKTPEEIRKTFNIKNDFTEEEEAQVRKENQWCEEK
UniProt A1X283: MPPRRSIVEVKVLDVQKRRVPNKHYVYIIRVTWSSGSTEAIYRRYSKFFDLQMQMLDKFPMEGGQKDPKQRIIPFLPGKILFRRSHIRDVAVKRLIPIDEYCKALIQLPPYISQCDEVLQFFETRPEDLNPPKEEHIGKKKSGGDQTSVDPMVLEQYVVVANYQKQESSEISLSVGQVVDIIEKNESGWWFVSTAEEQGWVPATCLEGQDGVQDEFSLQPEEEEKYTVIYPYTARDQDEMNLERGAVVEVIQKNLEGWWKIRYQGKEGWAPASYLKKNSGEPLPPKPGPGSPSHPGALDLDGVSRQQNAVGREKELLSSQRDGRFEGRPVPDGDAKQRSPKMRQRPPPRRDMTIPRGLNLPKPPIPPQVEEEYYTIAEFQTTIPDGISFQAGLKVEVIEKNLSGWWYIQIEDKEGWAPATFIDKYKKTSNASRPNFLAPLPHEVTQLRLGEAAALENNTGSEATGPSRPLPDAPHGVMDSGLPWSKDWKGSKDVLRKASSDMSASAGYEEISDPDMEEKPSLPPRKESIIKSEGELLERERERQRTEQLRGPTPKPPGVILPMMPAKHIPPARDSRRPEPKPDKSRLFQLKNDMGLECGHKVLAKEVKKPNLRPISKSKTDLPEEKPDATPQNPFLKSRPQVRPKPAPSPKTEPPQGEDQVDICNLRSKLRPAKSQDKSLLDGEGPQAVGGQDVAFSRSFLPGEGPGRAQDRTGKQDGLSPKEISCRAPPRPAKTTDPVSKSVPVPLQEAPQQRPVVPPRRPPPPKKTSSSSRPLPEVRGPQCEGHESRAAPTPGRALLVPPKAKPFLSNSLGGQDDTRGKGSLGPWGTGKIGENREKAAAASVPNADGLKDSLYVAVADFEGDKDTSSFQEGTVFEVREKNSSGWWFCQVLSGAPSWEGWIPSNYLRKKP
UniProt Q14141: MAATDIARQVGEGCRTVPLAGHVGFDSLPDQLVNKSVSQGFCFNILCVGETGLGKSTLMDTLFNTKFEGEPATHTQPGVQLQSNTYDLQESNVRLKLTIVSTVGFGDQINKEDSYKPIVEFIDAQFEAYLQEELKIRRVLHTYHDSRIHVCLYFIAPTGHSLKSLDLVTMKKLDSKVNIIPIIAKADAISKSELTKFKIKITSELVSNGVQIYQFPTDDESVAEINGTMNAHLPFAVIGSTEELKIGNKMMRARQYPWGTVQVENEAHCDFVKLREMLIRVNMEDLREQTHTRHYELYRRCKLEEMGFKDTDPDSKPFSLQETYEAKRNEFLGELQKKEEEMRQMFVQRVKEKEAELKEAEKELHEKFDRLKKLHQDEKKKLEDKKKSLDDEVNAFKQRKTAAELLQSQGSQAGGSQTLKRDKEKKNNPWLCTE
UniProt Q96NB2: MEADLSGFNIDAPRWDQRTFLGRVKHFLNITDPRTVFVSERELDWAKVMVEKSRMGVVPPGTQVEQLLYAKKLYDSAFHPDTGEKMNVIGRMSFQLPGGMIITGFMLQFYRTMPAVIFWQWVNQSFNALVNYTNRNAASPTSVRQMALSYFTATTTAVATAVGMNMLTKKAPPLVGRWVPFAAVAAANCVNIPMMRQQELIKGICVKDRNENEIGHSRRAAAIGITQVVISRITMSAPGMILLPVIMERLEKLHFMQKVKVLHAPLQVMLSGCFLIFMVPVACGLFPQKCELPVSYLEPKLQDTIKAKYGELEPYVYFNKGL
UniProt Q8IUQ4: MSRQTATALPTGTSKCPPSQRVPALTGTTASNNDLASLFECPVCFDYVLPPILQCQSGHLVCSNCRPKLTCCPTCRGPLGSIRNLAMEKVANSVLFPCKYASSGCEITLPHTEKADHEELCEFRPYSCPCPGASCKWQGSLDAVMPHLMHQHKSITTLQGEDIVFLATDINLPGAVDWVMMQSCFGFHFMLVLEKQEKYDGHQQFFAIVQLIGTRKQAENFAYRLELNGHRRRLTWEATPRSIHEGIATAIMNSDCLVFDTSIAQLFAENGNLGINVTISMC
UniProt Q6P4A7: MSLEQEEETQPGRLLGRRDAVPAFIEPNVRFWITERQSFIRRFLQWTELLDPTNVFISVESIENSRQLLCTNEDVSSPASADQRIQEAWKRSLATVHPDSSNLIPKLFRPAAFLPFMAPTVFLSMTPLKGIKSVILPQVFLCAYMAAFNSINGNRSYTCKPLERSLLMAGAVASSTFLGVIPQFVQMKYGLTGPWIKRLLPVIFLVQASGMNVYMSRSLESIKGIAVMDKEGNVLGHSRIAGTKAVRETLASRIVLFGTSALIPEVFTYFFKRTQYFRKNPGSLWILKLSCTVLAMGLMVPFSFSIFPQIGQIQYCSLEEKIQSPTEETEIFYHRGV
UniProt P36955: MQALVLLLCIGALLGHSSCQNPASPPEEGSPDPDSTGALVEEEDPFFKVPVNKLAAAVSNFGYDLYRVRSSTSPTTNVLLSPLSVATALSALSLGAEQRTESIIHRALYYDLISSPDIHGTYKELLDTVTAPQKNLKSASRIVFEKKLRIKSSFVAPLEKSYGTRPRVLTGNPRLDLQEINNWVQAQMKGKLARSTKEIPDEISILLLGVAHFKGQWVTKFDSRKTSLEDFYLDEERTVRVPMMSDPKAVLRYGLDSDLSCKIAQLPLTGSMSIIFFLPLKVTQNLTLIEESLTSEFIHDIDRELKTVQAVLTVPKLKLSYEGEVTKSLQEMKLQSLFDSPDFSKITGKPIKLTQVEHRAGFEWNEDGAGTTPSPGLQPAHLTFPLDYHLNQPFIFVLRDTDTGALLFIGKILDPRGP
UniProt Q15464: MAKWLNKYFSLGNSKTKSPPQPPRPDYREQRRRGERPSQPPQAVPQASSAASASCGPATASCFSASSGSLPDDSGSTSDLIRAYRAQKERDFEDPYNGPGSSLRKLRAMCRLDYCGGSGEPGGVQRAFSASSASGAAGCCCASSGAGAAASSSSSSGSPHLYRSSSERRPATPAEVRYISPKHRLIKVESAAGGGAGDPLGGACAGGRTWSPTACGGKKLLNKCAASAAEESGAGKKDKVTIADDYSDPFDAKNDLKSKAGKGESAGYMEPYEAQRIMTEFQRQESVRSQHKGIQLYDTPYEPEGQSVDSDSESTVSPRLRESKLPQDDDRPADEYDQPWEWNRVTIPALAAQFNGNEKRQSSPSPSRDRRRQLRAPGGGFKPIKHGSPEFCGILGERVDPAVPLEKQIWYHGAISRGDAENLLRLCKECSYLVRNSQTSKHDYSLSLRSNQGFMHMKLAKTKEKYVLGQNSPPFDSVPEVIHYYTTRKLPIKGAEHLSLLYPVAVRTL
UniProt Q15428: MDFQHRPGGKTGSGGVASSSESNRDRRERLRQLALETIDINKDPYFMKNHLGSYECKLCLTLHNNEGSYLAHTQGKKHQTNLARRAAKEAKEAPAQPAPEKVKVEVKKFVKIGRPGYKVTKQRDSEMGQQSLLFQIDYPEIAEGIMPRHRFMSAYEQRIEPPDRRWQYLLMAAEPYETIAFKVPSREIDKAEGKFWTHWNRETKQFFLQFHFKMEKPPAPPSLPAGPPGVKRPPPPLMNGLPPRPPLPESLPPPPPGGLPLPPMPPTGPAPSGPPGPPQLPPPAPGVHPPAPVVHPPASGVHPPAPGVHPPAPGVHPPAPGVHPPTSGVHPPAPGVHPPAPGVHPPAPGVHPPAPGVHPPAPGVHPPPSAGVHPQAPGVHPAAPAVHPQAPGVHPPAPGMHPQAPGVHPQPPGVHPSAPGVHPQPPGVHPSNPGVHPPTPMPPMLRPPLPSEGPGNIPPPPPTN
UniProt P31947: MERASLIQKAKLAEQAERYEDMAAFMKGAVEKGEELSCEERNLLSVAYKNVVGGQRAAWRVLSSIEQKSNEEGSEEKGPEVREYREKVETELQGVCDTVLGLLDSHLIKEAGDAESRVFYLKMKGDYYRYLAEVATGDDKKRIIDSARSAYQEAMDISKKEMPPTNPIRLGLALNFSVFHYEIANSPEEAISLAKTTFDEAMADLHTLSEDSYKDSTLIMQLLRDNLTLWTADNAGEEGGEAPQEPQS
UniProt Q86VZ5: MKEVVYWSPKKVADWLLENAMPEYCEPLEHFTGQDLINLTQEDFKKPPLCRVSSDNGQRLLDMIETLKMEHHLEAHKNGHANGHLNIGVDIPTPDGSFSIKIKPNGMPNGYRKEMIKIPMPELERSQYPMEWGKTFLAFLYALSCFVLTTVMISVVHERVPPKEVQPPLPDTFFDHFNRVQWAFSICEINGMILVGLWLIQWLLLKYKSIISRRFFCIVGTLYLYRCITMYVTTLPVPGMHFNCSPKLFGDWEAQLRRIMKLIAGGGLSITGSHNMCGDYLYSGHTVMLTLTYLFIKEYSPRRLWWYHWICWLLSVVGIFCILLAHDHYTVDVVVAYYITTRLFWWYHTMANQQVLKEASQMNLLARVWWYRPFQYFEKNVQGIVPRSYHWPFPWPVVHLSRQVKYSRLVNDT
UniProt O75368: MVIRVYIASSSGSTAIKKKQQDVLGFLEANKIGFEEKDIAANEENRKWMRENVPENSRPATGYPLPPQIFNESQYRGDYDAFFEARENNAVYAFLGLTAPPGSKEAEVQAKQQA
UniProt Q9BRV8: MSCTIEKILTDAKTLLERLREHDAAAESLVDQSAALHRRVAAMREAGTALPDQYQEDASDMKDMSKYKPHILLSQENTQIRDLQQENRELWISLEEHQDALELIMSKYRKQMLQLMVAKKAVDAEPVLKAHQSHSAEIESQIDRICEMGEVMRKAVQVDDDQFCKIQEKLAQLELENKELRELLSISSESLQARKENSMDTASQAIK
UniProt O60239: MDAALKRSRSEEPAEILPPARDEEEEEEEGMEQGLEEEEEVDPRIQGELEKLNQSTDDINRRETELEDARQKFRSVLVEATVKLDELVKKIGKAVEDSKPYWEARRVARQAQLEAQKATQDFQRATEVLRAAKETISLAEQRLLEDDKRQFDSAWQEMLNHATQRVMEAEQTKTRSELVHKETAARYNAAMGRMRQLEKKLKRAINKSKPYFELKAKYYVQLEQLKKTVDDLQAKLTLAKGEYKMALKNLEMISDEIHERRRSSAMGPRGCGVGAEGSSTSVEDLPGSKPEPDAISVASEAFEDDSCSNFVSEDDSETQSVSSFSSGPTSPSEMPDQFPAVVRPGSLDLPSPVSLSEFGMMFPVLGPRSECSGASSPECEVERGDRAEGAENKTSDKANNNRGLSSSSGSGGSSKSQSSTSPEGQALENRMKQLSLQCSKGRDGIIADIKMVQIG
UniProt P84101: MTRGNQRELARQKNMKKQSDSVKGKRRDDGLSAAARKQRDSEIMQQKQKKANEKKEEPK

Columns and labels:
Assay in all cases: log2 fold change, soluble protein after heating vs DMSO (PISA); higher = thermal stabilisation; K562 cells, 10 uM, 30 min; active = over 0.2 and 3.5 SD of the protein, either way, in both replicates (recomputed)
[1] = compound: NC(=O)Nc1cc(-c2cccc(F)c2)sc1C(=O)N[C@H]1CCCNC1
In short: (§1)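 Quantification of soluble protein used TMTpro 16plex LC-MS/MS, with channel sums equalised. Samples were the supernatant after 21,000xg for 90 min of pooled aliquots from K562 cells (2×10^6 cells/mL) treated with 10 μM compound for 30 min, heated for 3 min over 48°C-58°C, and extracted in PBS with 0.5% NP-40 at 4°C. Values, from duplicates, describe thermal stability against control samples on a log2 fold-change scale.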

[2] = compound: NC(=O)c1cnc(N[C@@H]2CCCC[C@@H]2N)nc1Nc1cccc(-n2nccn2)c1
In short: as §1

[3] = compound: NC1(c2ccc(-c3nc4ccn5c(=O)[nH]nc5c4cc3-c3ccccc3)cc2)CCC1
In short: as §1

[4] = compound: NCC(=O)Nc1ccc(-n2nc(C(F)(F)F)cc2-c2ccc3c(ccc4ccccc43)c2)cc1
In short: as §1

[5] = compound: Nc1ccccc1NC(=O)c1ccc(CNC(=O)OCc2cccnc2)cc1 [entinostat]
In short: as §1

[6] = compound: O=C(CCCCCCC(=O)Nc1ccccc1)NO [vorinostat]
In short: as §1

[7] = compound: O=C(CCCCCCNC(=O)c1cnc(N(c2ccccc2)c2ccccc2Cl)nc1)NO [citarinostat]
In short: as §1

[8] = compound: O=C(O)c1ccc2c(c1)nc(Nc1cccc(Cl)c1)c1ccncc12 [silmitasertib]
In short: as §1

[9] = compound: O=C1NC(=O)C(c2cnc3ccccn23)=C1c1cn2c3c(cc(F)cc13)CN(C(=O)N1CCCCC1)CC2
In short: as §1

[10] = compound: c1cc(OCCN2CCCCC2)cc(-c2n[nH]c3ccc(-c4nnc[nH]4)cc23)c1
In short: as §1

Measured: log2 fold change

SEH1L isoform 1 (UniProt Q96EE3)
inactive: [1] 0.007 | [2] -0.027 | [3] -0.014 | [4] -0.004 | [5] -0.04 | [6] 0.022 | [7] 0.064 | [8] 0.076 | [9] -0.027 | [10] -0.065

SELENON (UniProt Q9NZV5)
inactive: [1] 0.101 | [2] -0.163 | [4] -0.277 | [5] -0.157

SERINC1 (UniProt Q9NRX5)
inactive: [1] -0.061 | [2] -0.241 | [3] 0.004 | [4] -0.174 | [5] -0.009 | [7] 0.088 | [8] 0.197 | [9] 0.032 | [10] 0.022

SHFL (UniProt Q9NUL5)
inactive: [1] -0.019 | [2] 0.357 | [3] 0.309 | [5] -0.023 | [6] -0.055 | [8] 0.084 | [9] 0.194

SGO1 (UniProt Q5FBB7)
inactive: [1] 0.008 | [2] -0.049 | [3] -0.031 | [4] 0.038 | [5] -0.021 | [6] 0.004 | [7] 0.069 | [8] 0.042 | [9] 0.002 | [10] -0.038

SIAE (UniProt Q9HAT2)
inactive: [1] 0.033 | [2] 0.051 | [4] -0.253 | [5] -0.011 | [6] 0.022 | [9] -0.089

SF3B5 (UniProt Q9BWJ5)
inactive: [1] 0.081 | [2] 0.043 | [3] -0.034 | [4] 0.038 | [5] 0.116 | [6] -0.004 | [7] -0.016 | [8] 0.016 | [9] -0.127 | [10] 0

SIPA1 (UniProt Q96FS4)
inactive: [1] 0.027 | [2] 0.015 | [3] -0.003 | [4] -0.003 | [5] 0.022 | [6] 0.022 | [7] -0.013 | [8] -0.012 | [9] -0.003 | [10] 0.017

SKP1 (UniProt P63208)
inactive: [1] 0.015 | [2] 0.011 | [3] 0.034 | [4] 0.047 | [5] 0.037 | [6] 0.16 | [7] -0.003 | [8] 0 | [9] 0.008 | [10] 0.01

SH3PXD2B (UniProt A1X283)
inactive: [1] 0.066 | [2] 0.248 | [3] -0.082 | [4] 0.052 | [5] -0.056 | [6] -0.128 | [7] 0.032 | [8] -0.108 | [9] 0.009 | [10] 0.026

SERPINH1 (UniProt P50454)
inactive: [1] -0.025 | [2] 0.034 | [3] -0.014 | [4] 0.016 | [5] 0 | [6] -0.008 | [7] 0.025 | [8] 0.003 | [9] -0.026 | [10] -0.036

SEL1L (UniProt Q9UBV2)
inactive: [1] 0.005 | [2] -0.024 | [3] -0.05 | [4] 0.008 | [5] -0.016 | [6] -0.016 | [7] -0.03 | [8] 0.03 | [9] 0 | [10] -0.024

SEPTIN6 (UniProt Q14141)
inactive: [1] 0.041 | [2] 0 | [3] 0.142 | [4] 0.008 | [5] 0.005 | [6] -0.089 | [7] 0 | [8] -0.064 | [9] -0.032 | [10] -0.021

SGF29 (UniProt Q96ES7)
inactive: [1] 0.014 | [2] -0.043 | [3] -0.029 | [4] -0.095 | [5] 0.005 | [6] 0.039 | [7] -0.004 | [8] -0.036 | [9] 0.004 | [10] -0.023

SFXN2 (UniProt Q96NB2)
inactive: [1] -0.07 | [2] 0.041 | [3] 0.008 | [4] -0.039 | [5] -0.044 | [6] 0.083 | [7] 0.077 | [8] -0.023 | [9] -0.015 | [10] -0.018

SIAH1 isoform 2 (UniProt Q8IUQ4)
inactive: [1] 0.133 | [2] -0.024 | [4] 0.045 | [5] -0.001 | [6] 0.262 | [7] 0.159 | [9] 0.306 | [10] -0.034

SEMG2 (UniProt Q02383)
inactive: [1] -0.013 | [2] 0.046 | [3] 0.651 | [5] 0.033 | [6] -0.073 | [7] 0.066 | [8] 0.001 | [9] 0.051 | [10] -0.067

SFXN4 isoform 3 (UniProt Q6P4A7)
inactive: [1] -0.33 | [2] 0.073 | [4] 0.076 | [5] -0.134 | [6] 0.059 | [7] 0.114 | [10] -0.058

SERPINF1 (UniProt P36955)
inactive: [1] -0.03 | [2] -0.007 | [3] 0.176 | [4] 0.023 | [5] -0.059 | [6] -0.058 | [7] -0.008 | [8] 0.039 | [9] -0.002 | [10] 0.384

SF1 isoform 6 (UniProt Q15637)
inactive: [1] -0.202 | [2] 0.071 | [3] -0.042 | [4] 0.019 | [5] -0.013 | [6] -0.113 | [7] -0.008 | [8] -0.128 | [9] -0.424 | [10] -0.046

SHB (UniProt Q15464)
inactive: [1] 0.02 | [2] -0.063 | [3] -0.358 | [5] 0.071 | [6] 0.061 | [8] 0.044

SF3A2 (UniProt Q15428)
inactive: [1] -0.051 | [2] -0.074 | [3] 0.05 | [4] -0.128 | [5] -0.02 | [6] -0.01 | [7] 0.031 | [8] 0.072 | [9] -0.025 | [10] -0.107

SFN (UniProt P31947)
inactive: [1] -0.035 | [2] -0.064 | [3] 0.112 | [4] -0.082 | [5] -0.006 | [6] -0.009 | [7] -0.135 | [8] -0.061 | [9] -0.046 | [10] 0.02

SGMS1 (UniProt Q86VZ5)
inactive: [1] -0.058 | [2] 0.048 | [3] -0.046 | [4] 0.015 | [5] -0.061 | [6] -0.009 | [7] 0.06 | [8] 0.009 | [9] -0.066 | [10] -0.113

SH3BGRL (UniProt O75368)
inactive: [1] 0.149 | [2] -0.028 | [3] -0.046 | [4] 0.07 | [5] 0.084 | [6] -0.08 | [7] 0.043 | [8] -0.036 | [9] -0.046 | [10] 0.025

SIK3 (UniProt H0Y4E8)
inactive: [1] -0.022 | [2] 0.08 | [3] -0.22 | [4] -0.038 | [5] -0.075 | [6] -0.053 | [7] -0.053 | [8] 0.054 | [10] -0.098

SF3A1 (UniProt Q15459)
inactive: [1] 0.009 | [2] -0.01 | [3] -0.007 | [4] 0.009 | [5] 0.038 | [6] -0.011 | [7] 0.019 | [8] 0.004 | [9] 0.041 | [10] -0.023

SIKE1 (UniProt Q9BRV8)
inactive: [1] 0.003 | [2] -0.01 | [3] -0.009 | [4] 0.054 | [5] -0.072 | [6] 0.036 | [8] 0.016 | [9] -0.059

SH3BP5 (UniProt O60239)
inactive: [1] -0.018 | [2] -0.066 | [3] -0.028 | [4] -0.037 | [5] 0.01 | [6] -0.036 | [7] 0.015 | [8] 0.019 | [9] -0.026 | [10] -0.228

SERF2 (UniProt P84101)
inactive: [1] -0.051 | [3] 0.067 | [4] -0.025 | [5] -0.026 | [6] 0.251 | [7] -0.135 | [8] 0.03 | [9] -0.026 | [10] 0.021

SETD3 (UniProt Q86TU7)
inactive: [1] -0.007 | [2] -0.019 | [3] -0.045 | [4] -0.002 | [5] -0.02 | [6] -0.035 | [7] -0.015 | [8] 0.007 | [9] -0.022 | [10] 0.031

SKA1 (UniProt Q96BD8)
inactive: [1] 0.126 | [3] 0.083 | [4] -0.074 | [5] 0.101 | [6] 0.111 | [7] 0.051 | [8] 0.115 | [9] 0.239 | [10] -0.199

2 consecutive entries already listed:
SIKE1 (UniProt Q9BRV8)
inactive: [1] 0.003 | [2] -0.01 | [3] -0.009 | [4] 0.054 | [5] -0.072 | [6] 0.036 | [8] 0.016 | [9] -0.059

SH3BP5 (UniProt O60239)
inactive: [1] -0.018 | [2] -0.066 | [3] -0.028 | [4] -0.037 | [5] 0.01 | [6] -0.036 | [7] 0.015 | [8] 0.019 | [9] -0.026 | [10] -0.228
